According to patent US20120213771A1:
Where a chain is given by its changes, count along the chain named. No constants are given. Whether binding was seen depends on the method and setting. Binding calls can cover weak binding; strength is not graded here.

B1: 2C2-1A10 (antibody, V domains shown)
VH: QVQLVESGGGVVQPGRSLRLSCAASGFTFSSYDIHWVRQAPGKGLEWVAVIWNDGSNKYYADSVKGRFTISRDNSTNSLFLQMNSLRAEDTAVYYCVGGTADLEHWDQGTLVTVSS
VL: DIQMTQSPSSLSASVGDRVTITCRASQGISSWLAWYQQKPEKAPKSLIYAASSLQSGVPSRFSGSGSGTDFTLTISSLQPEDFATYYCQQYNSYPLTFGGGTKVEIK
B2: 2G9-1D11 (antibody, V domains shown)
VH: B1 VH with F29L, Y32H, G98R
VL: B1 VL
B3: 1G5-1B9 (antibody, V domains shown)
VH: QVQLVESGGGVVQPGRSLRLSCAASGFSFSSYGMHWVRQAPGKGLEWVALLWYDGSHKDFADSVKGRFTISRDNSKNTLDLQMNSLRAEDTAVYYCAREGLAVPGHWYFDLWGRGTLVTVSS
VL: AIQLTQSPSSLSASVGDRVTITCRASQGISSALAWYQQKPGKAPKLLIYDASSLESGVPSRFSGSGSGTDFTLTISSLQPEDFATYYCQQFNTYPRTFGQGTKVEIK

Molecular target: rhesus macaque CD27 (rhesus macaque)
Test: hybridoma screen for cross-reactivity

binding | Binder
binds | B1
binds | B2
binds | B3
